Laboratory results published in the supplement of paper PMC12024529.
Structures can show the parent of a compound that is named as a salt. Some of the results follow. Plates or batches differ in their baseline, so values are only roughly comparable.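 Wild-type or misfolding-prone missense mutant B-domain-deleted factor VIII, fused to Gaussia luciferase, is stably expressed in HEK293 lines. Each score is (mean triplicate-well luminescence minus DMSO mean) divided by DMSO standard deviation. Hits score at least 2; lower scores could stem from decreased secretion or poorer cell viability.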

Experiments:
[1] = system: HEK293 WT BDD-FVIII-Gluc; experiment: secreted FVIII-Gluc luciferase Z-score vs DMSO control; higher = more FVIII-Gluc secretion; details: 5 µM; 24 h
[2] = system: HEK293 p.N1941S BDD-FVIII-Gluc; experiment: as above; details: 5 µM; 24 h

Compound	secreted FVIII-Gluc luciferase Z-score [1]	secreted FVIII-Gluc luciferase Z-score [2]
Cc1cccc(Nc2ccccc2C(=O)O)c1C [Mefenamic acid]	inactive: -0.493	inactive: -0.115
CC12CC3CC(C)(C1)CC(N)(C3)C2 [Memantine HCl (Namenda)]	inactive: 1.25	inactive: -0.825
CN(C)CCC(c1ccccc1)c1ccccn1 (centres undefined) [Pheniramine Maleate]	inactive: 0.0201	inactive: 0.14
Cc1cc2c(cc1S(N)(=O)=O)S(=O)(=O)CCC2 [Meticrane]	inactive: 0.6	inactive: 0.97
CO[C@H]1C[C@@H]2CC[C@@H](C)[C@@](O)(O2)C(=O)C(=O)N2CCCC[C@H]2C(=O)O[C@H]([C@H](C)C[C@@H]2CC[C@@H](O)[C@H](OC)C2)CC(=O)[C@H](C)/C=C(\C)[C@@H](O)[C@@H](OC)C(=O)[C@H](C)C[C@H](C)/C=C/C=C/C=C/1C [Rapamycin (Sirolimus)]	inactive: -1.34	inactive: -5.96
CC/C(=C(\c1ccccc1)c1ccc(OCCN(C)C)cc1)c1ccccc1 [Tamoxifen Citrate (Nolvadex)]	active: 6.14	active: 7.66
N#C[C@@H]1CCCN1C(=O)CNC12CC3CC(CC(O)(C3)C1)C2 [Vildagliptin (LAF-237)]	inactive: -0.608	inactive: 0.215
CC(=O)NS(=O)(=O)c1ccc(N)cc1 [sulfacetamide sodium]	inactive: -1.63	inactive: -0.351
C[C@H]1COc2c(N3CCN(C)CC3)c(F)cc3c(=O)c(C(=O)O)cn1c23 [Levofloxacin (Levaquin)]	inactive: -1.31	inactive: 1.38
COC(=O)Nc1nc2cc(Sc3ccccc3)ccc2[nH]1 [Fenbendazole]	inactive: -4.34	inactive: -7.17
Cc1ccc(C(=O)c2ccc(CC(=O)O)n2C)cc1 [Tolmetin Sodium]	inactive: -0.619	inactive: 1.49
CC(=O)OCC[N+](C)(C)C [Acetylcholine chloride]	inactive: 0.0816	inactive: -0.334
